Among the test systems are CCT8 (human); CD244 (human); CD40 (human); CD9 (human); CDC123 (human); CDCA4 (human); CDK6 (human); CDKN2D (human); CEACAM6 (human); CENTD2 (human); CHAF1B (human); CHEK2 (human); CHN1 (human); CHRAC1 (human); CKLFSF5 (human); CKM (human); CLCF1 (human); CLDN18 (human).
What all share (test): protein microarray (ProtoArray v5.0), streptavidin-Alexa Fluor 647
Holding throughout (details): 3'-biotin; 20 mM Tris (pH 7.5), 5 mM MgCl2, 100 mM KCl, 0.1% Tween-20, A/T-rich and random oligonucleotide blockers; temperature not stated; high values mean tight binding

In another experiment the target is T1, CD209 (UniProt Q9NNX6).
T1 sequence: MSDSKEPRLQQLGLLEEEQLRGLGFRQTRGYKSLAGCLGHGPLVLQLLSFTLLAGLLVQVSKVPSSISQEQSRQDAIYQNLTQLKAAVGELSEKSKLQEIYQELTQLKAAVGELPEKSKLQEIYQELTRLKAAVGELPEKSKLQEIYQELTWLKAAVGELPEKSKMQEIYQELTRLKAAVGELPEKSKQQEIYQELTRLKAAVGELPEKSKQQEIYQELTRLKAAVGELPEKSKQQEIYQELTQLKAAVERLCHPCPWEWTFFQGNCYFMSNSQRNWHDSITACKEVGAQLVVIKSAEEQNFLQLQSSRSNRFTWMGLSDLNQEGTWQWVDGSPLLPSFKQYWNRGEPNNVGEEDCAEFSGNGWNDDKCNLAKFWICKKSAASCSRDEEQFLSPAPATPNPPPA

The test system of experiment [1] is CDK5 regulatory subunit-associated protein 3 (human).

Where “and” joins values, the source holds several entries; their conditions need not be identical. Equal entries are not always repeated. The list shows a part of the results. For some assays here: Construct or isoform of the protein are uncertain.

In the case of “GGGGACAGGGGTATGGGGAGGGG [G4-3 biotinylated (CtG)]”, the binding signal was -0.33 z-score and -0.336 z-score in the experiment on CCT8 (human); -0.322 z-score with CD209; -0.318 z-score in the experiment on CD244 (human); -0.319 z-score in the experiment on CD40 (human); -0.331 z-score with CD9 (human); -0.327 z-score with CDC123 (human). Besides, the binding signal is -0.332 z-score in the experiment with CDCA4 (human); -0.349 z-score in experiment [1]; -0.321 z-score in the experiment with CDK6 (human); -0.337 z-score with CDKN2D (human); -0.328 z-score in the experiment on CEACAM6 (human); -0.33 z-score with CENTD2 (human). The binding signal with CHAF1B (human) was -0.329 z-score; in the experiment on CHEK2 (human) it was -0.324 z-score; in the experiment with CHN1 (human) it was -0.333 z-score; with CHRAC1 (human), -0.334 z-score; with CKLFSF5 (human) it was -0.332 z-score; with CKM (human) it was -0.337 z-score. For the same sequence, the binding signal in the experiment on CLCF1 (human) was -0.322 z-score; in the experiment with CLDN18 (human), -0.31 z-score.

Values taken from article PMC5996148.
